Assay results taken from the supplement of paper PMC11732987, “Enantioselective OTUD7B fragment discovery through chemoproteomics screening and high-throughput optimisation” (Communications Chemistry, 2025).
The list shows a part of the results. The data scatter; read single values as rough.

Sequences of proteins named here, by UniProt entry; tags and fusion partners are left off. A change or cut given only in a name is not applied to a line headed by its entry. Residues count along the entry.
UniProt Q9H1K1: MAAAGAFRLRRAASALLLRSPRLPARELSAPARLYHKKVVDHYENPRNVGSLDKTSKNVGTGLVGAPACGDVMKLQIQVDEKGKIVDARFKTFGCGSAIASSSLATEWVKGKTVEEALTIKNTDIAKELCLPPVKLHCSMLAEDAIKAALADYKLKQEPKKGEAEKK
UniProt Q9ULH0: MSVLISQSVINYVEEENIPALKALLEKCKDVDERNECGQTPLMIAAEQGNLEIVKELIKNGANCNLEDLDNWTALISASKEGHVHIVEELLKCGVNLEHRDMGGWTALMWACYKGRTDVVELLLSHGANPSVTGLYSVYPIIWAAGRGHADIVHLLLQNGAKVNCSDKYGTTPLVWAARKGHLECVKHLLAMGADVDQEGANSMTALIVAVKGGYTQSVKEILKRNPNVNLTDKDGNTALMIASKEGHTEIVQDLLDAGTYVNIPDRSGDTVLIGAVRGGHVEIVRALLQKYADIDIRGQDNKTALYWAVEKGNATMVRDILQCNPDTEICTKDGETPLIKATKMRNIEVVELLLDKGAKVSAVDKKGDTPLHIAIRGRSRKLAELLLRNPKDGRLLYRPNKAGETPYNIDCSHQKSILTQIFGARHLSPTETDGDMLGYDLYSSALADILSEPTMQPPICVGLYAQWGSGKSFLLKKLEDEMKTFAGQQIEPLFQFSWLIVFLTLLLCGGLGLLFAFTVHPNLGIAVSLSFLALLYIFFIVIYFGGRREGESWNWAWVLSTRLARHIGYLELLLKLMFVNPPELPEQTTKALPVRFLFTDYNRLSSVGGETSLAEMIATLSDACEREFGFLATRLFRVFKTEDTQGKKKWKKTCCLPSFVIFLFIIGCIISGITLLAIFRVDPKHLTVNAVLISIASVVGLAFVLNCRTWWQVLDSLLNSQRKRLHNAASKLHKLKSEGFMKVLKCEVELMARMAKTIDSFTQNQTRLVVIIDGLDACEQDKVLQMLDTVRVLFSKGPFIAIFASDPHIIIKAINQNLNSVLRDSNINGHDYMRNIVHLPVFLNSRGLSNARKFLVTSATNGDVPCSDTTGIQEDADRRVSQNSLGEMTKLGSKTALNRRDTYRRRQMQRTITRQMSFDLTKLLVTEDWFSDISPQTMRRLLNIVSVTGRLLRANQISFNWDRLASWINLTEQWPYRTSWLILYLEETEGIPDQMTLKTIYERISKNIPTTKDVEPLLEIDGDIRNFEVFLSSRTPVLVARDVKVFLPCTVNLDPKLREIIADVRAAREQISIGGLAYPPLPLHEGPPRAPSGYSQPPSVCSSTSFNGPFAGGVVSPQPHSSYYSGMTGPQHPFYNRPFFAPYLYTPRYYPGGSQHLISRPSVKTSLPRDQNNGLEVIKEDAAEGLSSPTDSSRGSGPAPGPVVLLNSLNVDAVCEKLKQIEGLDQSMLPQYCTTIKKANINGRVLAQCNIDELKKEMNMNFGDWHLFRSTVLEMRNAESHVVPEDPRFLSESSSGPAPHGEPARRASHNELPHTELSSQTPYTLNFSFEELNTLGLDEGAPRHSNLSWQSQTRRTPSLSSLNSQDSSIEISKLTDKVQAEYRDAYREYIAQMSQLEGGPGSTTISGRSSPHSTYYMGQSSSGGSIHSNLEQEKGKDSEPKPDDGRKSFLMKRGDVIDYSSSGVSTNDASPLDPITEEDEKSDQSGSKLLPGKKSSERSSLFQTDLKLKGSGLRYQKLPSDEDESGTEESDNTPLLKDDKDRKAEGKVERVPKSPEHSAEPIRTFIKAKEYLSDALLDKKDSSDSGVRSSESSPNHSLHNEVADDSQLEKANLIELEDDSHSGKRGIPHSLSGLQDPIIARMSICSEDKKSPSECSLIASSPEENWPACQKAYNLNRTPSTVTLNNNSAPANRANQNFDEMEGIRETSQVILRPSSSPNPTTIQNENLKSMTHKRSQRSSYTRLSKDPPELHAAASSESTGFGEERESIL
UniProt O43896: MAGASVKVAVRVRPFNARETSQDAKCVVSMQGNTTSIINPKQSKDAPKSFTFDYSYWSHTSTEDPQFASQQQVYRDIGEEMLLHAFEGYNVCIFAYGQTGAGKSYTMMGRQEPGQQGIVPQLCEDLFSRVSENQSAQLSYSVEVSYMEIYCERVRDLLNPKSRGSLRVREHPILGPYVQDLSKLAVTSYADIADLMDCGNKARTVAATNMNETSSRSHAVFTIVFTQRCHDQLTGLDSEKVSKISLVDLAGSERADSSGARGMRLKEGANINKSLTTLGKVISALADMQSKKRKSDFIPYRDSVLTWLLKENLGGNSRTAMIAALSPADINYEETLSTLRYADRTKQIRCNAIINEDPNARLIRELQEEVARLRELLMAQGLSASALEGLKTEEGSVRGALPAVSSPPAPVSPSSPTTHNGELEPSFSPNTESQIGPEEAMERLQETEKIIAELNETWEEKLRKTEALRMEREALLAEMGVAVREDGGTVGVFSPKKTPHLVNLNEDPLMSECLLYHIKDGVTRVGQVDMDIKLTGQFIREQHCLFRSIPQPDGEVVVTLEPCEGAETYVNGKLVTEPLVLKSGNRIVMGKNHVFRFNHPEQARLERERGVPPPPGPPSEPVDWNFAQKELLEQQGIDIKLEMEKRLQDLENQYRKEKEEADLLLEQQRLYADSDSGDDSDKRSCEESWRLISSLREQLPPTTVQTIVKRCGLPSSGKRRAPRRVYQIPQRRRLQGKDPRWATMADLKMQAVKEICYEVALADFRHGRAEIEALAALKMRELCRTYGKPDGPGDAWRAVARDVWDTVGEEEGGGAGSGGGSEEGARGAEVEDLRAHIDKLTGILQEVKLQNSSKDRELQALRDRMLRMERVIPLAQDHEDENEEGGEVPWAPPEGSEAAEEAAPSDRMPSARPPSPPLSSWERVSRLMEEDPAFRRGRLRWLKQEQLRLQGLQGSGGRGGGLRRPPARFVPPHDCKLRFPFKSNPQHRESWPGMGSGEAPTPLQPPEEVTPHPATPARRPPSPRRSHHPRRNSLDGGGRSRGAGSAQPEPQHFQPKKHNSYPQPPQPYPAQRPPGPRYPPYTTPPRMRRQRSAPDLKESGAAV
UniProt Q12840, 382-408: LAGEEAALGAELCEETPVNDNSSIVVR
UniProt Q9Y4C1: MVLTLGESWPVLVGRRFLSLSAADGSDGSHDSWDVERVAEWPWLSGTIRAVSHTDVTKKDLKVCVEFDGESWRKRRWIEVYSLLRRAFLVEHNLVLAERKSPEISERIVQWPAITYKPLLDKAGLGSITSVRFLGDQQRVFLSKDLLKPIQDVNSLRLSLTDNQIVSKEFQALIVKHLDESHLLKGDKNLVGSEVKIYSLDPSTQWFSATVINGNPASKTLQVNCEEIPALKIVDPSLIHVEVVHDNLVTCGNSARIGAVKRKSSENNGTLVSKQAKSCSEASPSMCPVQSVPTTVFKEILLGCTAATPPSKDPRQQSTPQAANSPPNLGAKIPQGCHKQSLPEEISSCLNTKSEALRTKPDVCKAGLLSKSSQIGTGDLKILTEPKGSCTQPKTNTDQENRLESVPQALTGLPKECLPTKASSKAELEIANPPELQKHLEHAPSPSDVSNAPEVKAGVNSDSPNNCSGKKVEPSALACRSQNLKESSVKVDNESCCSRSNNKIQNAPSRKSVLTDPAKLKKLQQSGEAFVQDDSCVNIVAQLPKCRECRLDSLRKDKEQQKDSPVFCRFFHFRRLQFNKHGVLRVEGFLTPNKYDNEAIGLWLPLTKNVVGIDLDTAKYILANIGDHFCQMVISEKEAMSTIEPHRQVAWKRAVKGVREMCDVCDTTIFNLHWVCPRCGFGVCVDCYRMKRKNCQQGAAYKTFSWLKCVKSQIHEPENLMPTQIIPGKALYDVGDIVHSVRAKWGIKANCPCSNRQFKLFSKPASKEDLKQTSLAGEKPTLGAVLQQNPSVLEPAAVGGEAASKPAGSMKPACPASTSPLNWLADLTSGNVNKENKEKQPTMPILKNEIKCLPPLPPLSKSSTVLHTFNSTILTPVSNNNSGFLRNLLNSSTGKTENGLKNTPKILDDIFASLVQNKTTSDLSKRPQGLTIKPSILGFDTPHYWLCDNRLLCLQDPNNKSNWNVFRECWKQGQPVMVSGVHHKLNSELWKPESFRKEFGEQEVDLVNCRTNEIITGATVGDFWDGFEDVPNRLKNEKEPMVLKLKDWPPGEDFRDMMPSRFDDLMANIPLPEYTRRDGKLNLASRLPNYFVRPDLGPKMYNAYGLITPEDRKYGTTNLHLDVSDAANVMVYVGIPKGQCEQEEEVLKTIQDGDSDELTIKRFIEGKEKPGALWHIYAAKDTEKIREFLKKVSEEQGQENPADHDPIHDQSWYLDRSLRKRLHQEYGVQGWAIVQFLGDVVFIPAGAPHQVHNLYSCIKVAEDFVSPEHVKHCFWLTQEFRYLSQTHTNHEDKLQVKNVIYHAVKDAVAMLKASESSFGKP
UniProt Q9Y2K7: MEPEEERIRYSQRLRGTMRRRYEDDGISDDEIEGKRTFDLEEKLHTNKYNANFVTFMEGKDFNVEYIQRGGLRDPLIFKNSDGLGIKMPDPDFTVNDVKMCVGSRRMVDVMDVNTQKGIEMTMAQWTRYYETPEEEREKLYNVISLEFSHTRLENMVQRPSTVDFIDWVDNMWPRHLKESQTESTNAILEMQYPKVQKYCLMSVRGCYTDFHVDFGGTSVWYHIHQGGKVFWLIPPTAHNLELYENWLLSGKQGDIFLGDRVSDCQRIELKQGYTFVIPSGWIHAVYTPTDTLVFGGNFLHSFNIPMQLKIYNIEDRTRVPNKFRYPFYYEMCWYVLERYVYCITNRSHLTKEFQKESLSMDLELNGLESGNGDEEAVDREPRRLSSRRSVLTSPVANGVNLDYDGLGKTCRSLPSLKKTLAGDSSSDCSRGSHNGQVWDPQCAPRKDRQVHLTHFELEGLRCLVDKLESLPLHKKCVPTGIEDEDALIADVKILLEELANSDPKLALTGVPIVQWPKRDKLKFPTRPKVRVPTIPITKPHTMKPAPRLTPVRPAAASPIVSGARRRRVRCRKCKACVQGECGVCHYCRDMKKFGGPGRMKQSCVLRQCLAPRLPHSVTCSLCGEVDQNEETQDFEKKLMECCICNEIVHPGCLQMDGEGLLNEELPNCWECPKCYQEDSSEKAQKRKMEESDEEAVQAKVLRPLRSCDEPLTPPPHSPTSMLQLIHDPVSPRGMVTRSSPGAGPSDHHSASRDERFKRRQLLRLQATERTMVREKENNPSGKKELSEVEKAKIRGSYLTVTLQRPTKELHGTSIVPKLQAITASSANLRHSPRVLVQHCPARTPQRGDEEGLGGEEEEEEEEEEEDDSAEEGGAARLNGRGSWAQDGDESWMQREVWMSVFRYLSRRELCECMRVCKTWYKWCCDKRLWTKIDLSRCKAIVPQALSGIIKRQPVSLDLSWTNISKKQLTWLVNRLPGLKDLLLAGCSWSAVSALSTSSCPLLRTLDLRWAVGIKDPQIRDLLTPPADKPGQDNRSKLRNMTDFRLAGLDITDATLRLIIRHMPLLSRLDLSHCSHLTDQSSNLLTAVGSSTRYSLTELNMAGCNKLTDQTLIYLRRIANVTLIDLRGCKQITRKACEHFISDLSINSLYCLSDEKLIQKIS
UniProt Q9Y6Y0: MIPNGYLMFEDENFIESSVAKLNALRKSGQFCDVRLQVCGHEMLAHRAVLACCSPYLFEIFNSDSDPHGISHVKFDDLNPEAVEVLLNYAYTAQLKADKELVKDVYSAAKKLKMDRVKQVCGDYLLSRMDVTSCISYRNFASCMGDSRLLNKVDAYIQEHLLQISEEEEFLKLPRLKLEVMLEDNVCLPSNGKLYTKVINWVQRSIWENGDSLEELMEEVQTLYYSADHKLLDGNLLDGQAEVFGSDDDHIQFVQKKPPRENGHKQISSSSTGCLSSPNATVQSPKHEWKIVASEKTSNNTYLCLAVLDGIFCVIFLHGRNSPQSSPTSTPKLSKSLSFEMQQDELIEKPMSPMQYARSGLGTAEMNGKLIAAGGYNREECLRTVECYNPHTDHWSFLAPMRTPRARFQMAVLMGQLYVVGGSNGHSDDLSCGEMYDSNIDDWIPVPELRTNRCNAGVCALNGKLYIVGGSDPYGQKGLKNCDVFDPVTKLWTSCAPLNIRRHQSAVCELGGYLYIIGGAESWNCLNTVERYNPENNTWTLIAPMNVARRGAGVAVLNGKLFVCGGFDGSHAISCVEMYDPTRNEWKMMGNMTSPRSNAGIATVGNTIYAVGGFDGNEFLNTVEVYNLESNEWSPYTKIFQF

Columns and labels:
[1] = compound: ClCC(=O)N[C@@H]1CCCc2ccccc12; assay: log2 mean competition ratio of IA-DTB cysteine labelling (DMSO/compound) (log2 ratio); higher = stronger cysteine engagement by compound; conditions: treatment time: 4 h, cell line lysate: HEK293T
Procedure: (§1)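 IA-DTB competitive cysteine chemoproteomics in HEK293T RIPA lysate. Lysates were treated with compound 29 or 30 at 50 or 200 µM for 4 h, then IA-DTB (500 µM, 1 h), trypsin-digested, NeutrAvidin-enriched and analysed by diaPASEF. Competition ratio = intensity DMSO / intensity compound (n=4 treated, n=64 DMSO); binding: mean log2 CR ≥ 1 and p ≤ 0.05 plus QC filters. Target is the cysteine site.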

[2] = compound: ClCC(=O)N[C@H]1CCCc2ccccc12; assay: as above; conditions: treatment time: 4 h, cell line lysate: HEK293T
Procedure: as §1

Target	log2 mean competition ratio ([1]; 50 µM)	log2 mean competition ratio ([1]; 200 µM)	log2 mean competition ratio ([2]; 50 µM)	log2 mean competition ratio ([2]; 200 µM)
ISCU C69 (UniProt Q9H1K1)	0.0219	0.137	0.611	-0.218
KIAA1671 C842	-0.122	-0.277	0.131	-0.349
KIDINS220 C1646 (UniProt Q9ULH0)	0.00145	0.119	0.421	0.23
KIAA1671 C585	-0.23	0.382	-0.16	0.447
KIF14 C291 (UniProt Q15058)	-0.00383	0.168	0.164	0.191
KIF1C C711 (UniProt O43896)	0.0786	0.0175	0.0556	0.0852
KIAA1586 C758 (UniProt Q9HCI6)	0.128	-0.0627	0.303	0.0753
IRF2BPL C445 (UniProt Q9H1B7)	-0.205	0.0972	-0.0263	0.0936
KIF1C C350 (UniProt O43896)	-0.111	-0.174	-0.0237	-0.0729
KIF5A C394 (UniProt Q12840)	-0.326	-0.0673	0.344	-0.236
IWS1 C749 (UniProt Q96ST2)	0.0235	0.0754	0.193	0.205
KAT6A C33	0.0313	0.183	0.0102	0.138
KIDINS220 C1050 (UniProt Q9ULH0)	-0.209	0.144	-0.187	0.328
KATNB1 C556 (UniProt Q9BVA0)	-0.0306	-0.256	-0.333	-0.274
KDM3A C364 (UniProt Q9Y4C1)	0.0556	-0.0679	0.247	0.254
KHSRP C436	0.412	-0.0491	0.771	0.0976
ISYNA1 C485 (UniProt Q9NPH2)	0.127	0.36	0.591	0.532
KDM2A C429 (UniProt Q9Y2K7)	-0.168	0.535	-0.177	0.738
KDM5C C629 (UniProt P41229)	0.188	0.077	0.0751	0.129
IVNS1ABP C134 (UniProt Q9Y6Y0)	-0.209	-0.0623	0.315	-0.2
KIDINS220 C412 (UniProt Q9ULH0)	-0.122	-0.047	-0.197	-0.0182

Shown as comma-separated lines: entries from further up.
Target,log2 mean competition ratio ([1]; 50 µM),log2 mean competition ratio ([1]; 200 µM),log2 mean competition ratio ([2]; 50 µM),log2 mean competition ratio ([2]; 200 µM)
KDM5C C629 (UniProt P41229),0.188,0.077,0.0751,0.129
IVNS1ABP C134 (UniProt Q9Y6Y0),-0.209,-0.0623,0.315,-0.2
